Taken from: PubChem BioAssay AID652243 (Drosophila RNAi Screening Center, 2013)

- Test: 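Fly regulators of androgen-dependent reporter output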 (primary screen)
- System: Drosophila S2R+ cells
- Knock-down reagent: long dsRNA against Drosophila genes
- Timing: 72 h (48 h, then 24 h hormone)
- Conditions: synthetic androgen R1881 at 10 nM for 24 h
- Read-out: 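Per-well raw luminescence of the androgen-driven firefly reporter and of the Renilla control, two replicates each, without normalisation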
- Reading the numbers: firefly reporter light: higher = more light from androgen-responsive reporter; Renilla control light: higher = more constitutive control signal (cell number, transfection)
- Call rule: 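Hit when the log firefly-to-Renilla ratio dropped or increased by a fixed fold versus the mean of GFP or LacZ controls across duplicate plates; lowering cut given as 1.5 and as 3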
- Calls: active = hit: reporter lowered or raised; inactive = no hit
In all, the deposit lists about 24,000 reagents; below is a random part of those that have a named target and a result. In the full data, 246 (1%) were called active. 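Plates not normalised; calls are printed but the firefly/Renilla ratio behind them is not deposited; fold cut for lowering reported inconsistently.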 Raw values are not corrected between plates. Entries without a mark were called inactive. Reagents against one gene are numbered here. Not given: the amount of reagent.

Polr2H (GeneID 40415): firefly reporter light, replicate 1 = 45850; firefly reporter light, replicate 2 = 1.11e5; Renilla control light, replicate 1 = 4.36e5; Renilla control light, replicate 2 = 4.69e5
ng4 (GeneID 31301): firefly reporter light, replicate 1 = 3.28e5; firefly reporter light, replicate 2 = 3.36e5; Renilla control light, replicate 1 = 4.34e6; Renilla control light, replicate 2 = 3.97e6
Uba2 (GeneID 44496): firefly reporter light, replicate 1 = 2.59e5; firefly reporter light, replicate 2 = 2.54e5; Renilla control light, replicate 1 = 3.27e6; Renilla control light, replicate 2 = 2.82e6
CG31245 (GeneID 42316): firefly reporter light, replicate 1 = 2.53e5; firefly reporter light, replicate 2 = 2.41e5; Renilla control light, replicate 1 = 3.36e6; Renilla control light, replicate 2 = 3.71e6
cl (GeneID 43938): firefly reporter light, replicate 1 = 7.03e5; firefly reporter light, replicate 2 = 5.52e5; Renilla control light, replicate 1 = 2.23e6; Renilla control light, replicate 2 = 1.77e6
Ugt35E1 (GeneID 53504) #1: firefly reporter light, replicate 1 = 1.03e5; firefly reporter light, replicate 2 = 1.05e5; Renilla control light, replicate 1 = 1.49e6; Renilla control light, replicate 2 = 1.71e6
Ugt35E1 (GeneID 53504) #2: firefly reporter light, replicate 1 = 5.95e5; firefly reporter light, replicate 2 = 5.43e5; Renilla control light, replicate 1 = 7.50e5; Renilla control light, replicate 2 = 6.85e5
CG9164 (GeneID 32467) #1: firefly reporter light, replicate 1 = 4.38e5; firefly reporter light, replicate 2 = 4.48e5; Renilla control light, replicate 1 = 8.25e5; Renilla control light, replicate 2 = 6.10e5
CG9164 (GeneID 32467) #2: firefly reporter light, replicate 1 = 1.29e5; firefly reporter light, replicate 2 = 1.23e5; Renilla control light, replicate 1 = 7.54e5; Renilla control light, replicate 2 = 7.95e5
CG9164 (GeneID 32467) #3: firefly reporter light, replicate 1 = 1.08e6; firefly reporter light, replicate 2 = 1.23e6; Renilla control light, replicate 1 = 1.41e6; Renilla control light, replicate 2 = 1.39e6
CG10631 (GeneID 35262): firefly reporter light, replicate 1 = 1.08e6; firefly reporter light, replicate 2 = 6.65e5; Renilla control light, replicate 1 = 1.86e6; Renilla control light, replicate 2 = 2.31e6

In a second layout: 3 of the entries above.
{"target gene":"CG9164 (GeneID 32467)","dsRNA no.":2,"firefly reporter light, replicate 1":1.29e5,"firefly reporter light, replicate 2":1.23e5,"Renilla control light, replicate 1":7.54e5,"Renilla control light, replicate 2":7.95e5}
{"target gene":"CG9164 (GeneID 32467)","dsRNA no.":3,"firefly reporter light, replicate 1":1.08e6,"firefly reporter light, replicate 2":1.23e6,"Renilla control light, replicate 1":1.41e6,"Renilla control light, replicate 2":1.39e6}
{"target gene":"CG10631 (GeneID 35262)","dsRNA no.":1,"firefly reporter light, replicate 1":1.08e6,"firefly reporter light, replicate 2":6.65e5,"Renilla control light, replicate 1":1.86e6,"Renilla control light, replicate 2":2.31e6}

More reagents follow.
Obp19a (GeneID 33037): firefly reporter light, replicate 1 = 1.83e5; firefly reporter light, replicate 2 = 1.35e5; Renilla control light, replicate 1 = 6.77e5; Renilla control light, replicate 2 = 2.88e5
CG2533 (GeneID 32110) #1: firefly reporter light, replicate 1 = 4.35e5; firefly reporter light, replicate 2 = 4.45e5; Renilla control light, replicate 1 = 4.77e6; Renilla control light, replicate 2 = 4.16e6
CG2533 (GeneID 32110) #2: firefly reporter light, replicate 1 = 6.55e5; firefly reporter light, replicate 2 = 3.89e5; Renilla control light, replicate 1 = 1.54e6; Renilla control light, replicate 2 = 1.05e6
sw (GeneID 44160): firefly reporter light, replicate 1 = 6.70e5; firefly reporter light, replicate 2 = 6.33e5; Renilla control light, replicate 1 = 9.54e5; Renilla control light, replicate 2 = 9.22e5
Duba (GeneID 39302): firefly reporter light, replicate 1 = 5.11e5; firefly reporter light, replicate 2 = 8.26e5; Renilla control light, replicate 1 = 7.30e5; Renilla control light, replicate 2 = 1.06e6
Or22b (GeneID 33336): firefly reporter light, replicate 1 = 1.66e5; firefly reporter light, replicate 2 = 1.26e5; Renilla control light, replicate 1 = 9.35e5; Renilla control light, replicate 2 = 9.90e5
tum (GeneID 36538): firefly reporter light, replicate 1 = 1.11e5; firefly reporter light, replicate 2 = 1.11e5; Renilla control light, replicate 1 = 2.06e6; Renilla control light, replicate 2 = 2.06e6
Traf6 (GeneID 31746): firefly reporter light, replicate 1 = 2.71e5; firefly reporter light, replicate 2 = 2.95e5; Renilla control light, replicate 1 = 2.48e6; Renilla control light, replicate 2 = 3.69e6
Bhmt (GeneID 35153) #1: firefly reporter light, replicate 1 = 1.24e5; firefly reporter light, replicate 2 = 1.82e5; Renilla control light, replicate 1 = 1.60e6; Renilla control light, replicate 2 = 1.72e6
Bhmt (GeneID 35153) #2: firefly reporter light, replicate 1 = 8.23e5; firefly reporter light, replicate 2 = 7.91e5; Renilla control light, replicate 1 = 1.15e6; Renilla control light, replicate 2 = 1.06e6
